This data set in a line: Taste and smell evaluation of water solutions of the compounds. The source says: Water solutions of exemplary compounds including lipedoside B-IIIb, ligurobustoside E and ligurobustoside K were each prepared and evaluated at 1, 2 and 5 ppm, respectively.

As for lipedoside B-IIIb, the “Taste and smell of water solution” value (water solution, 1, 2 and 5 ppm) is “devoid of taste and smell”.

Take `CC(C)=CCC/C(C)=C/CO[C@@H]1O[C@H](COC(=O)/C=C/c2ccc(O)cc2)[C@@H](O)[C@H](O[C@@H]2O[C@@H](C)[C@H](O)[C@@H](O)[C@H]2O)[C@H]1O` [Ligurobustoside E, ligurobustoside E]: the “Taste and smell of water solution” value (water solution, 5 ppm) was “slight astringency”.

ligurobustoside K: the “Taste and smell of water solution” value (water solution, 1, 2 and 5 ppm) is “devoid of taste and smell”.
